Source: PubChem BioAssay AID1259283 (Sanger Institute, 2017)
The whole screen tested 794 reagents; below is a part drawn at random. Of all reagents, 14 (1.8%) were called active. 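Calls reflect only viability loss without drug; drug synergy does not enter the call.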 Further read-outs or replicates are left out here. Not stated in the record: the amount of reagent, the time to read-out.

- Purpose: 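Kinases needed for HT115 growth and partners for drug synergy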 (primary screen)
- System: HT115 colorectal cancer cells
- Reagents: siRNA pool against human genes
- Treatment: anchor drug given one day after siRNA: BYL719 at 1 µM, cetuximab at 5 µg/ml, trametinib at 10 nM, or DMSO vehicle alone
- Measured: 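Viability normalised to non-targeting pool #2 wells and averaged over replicates, robust z-score against control wells, and a synergy score for each of three drugs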
- Direction: robust z-score, knock-down alone: higher = more viable cells after knock-down
- Hit rule: 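Essential gene: robust z-score less than -3 with no drug added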
- Calls: active = essential (z below -3, no drug); inactive = no change without drug

With knock-down of MAK, the screen gave robust z-score, knock-down alone -1.15; inactive.
CDK19 showed robust z-score, knock-down alone 0.789; inactive.
Knock-down of ALPK1 came out at: robust z-score, knock-down alone -3.07; active.
CSF1R scored robust z-score, knock-down alone 0.44; inactive.
Silencing of ATM gave: robust z-score, knock-down alone -0.353; inactive.
Knock-down of MAPK4 resulted in: robust z-score, knock-down alone -1.27; inactive.
Knock-down of ERBB2 came out at: robust z-score, knock-down alone 0.789; inactive.
Silencing of SPHK2 came out at: robust z-score, knock-down alone 0.135; inactive.
Silencing of TCF7L2 gave: robust z-score, knock-down alone 0.338; inactive.
For CDK12, the values are robust z-score, knock-down alone 0.789; inactive.
ATRX scored robust z-score, knock-down alone 0.789; inactive.
For TJP2, the values are robust z-score, knock-down alone 0.621; inactive.

Entries listed so far with an active call:
ALPK1 — robust z-score, knock-down alone = -3.07; call = active
